In publication PMC4492759, “Pharmacological profiling of the hemodynamic effects of cannabinoid ligands: a combined in vitro and in vivo approach” (Pharmacology Research & Perspectives, 2015) one finds EC50 data, which are given here for one compound.

By UniProt entry, the sequences of proteins in these tests, tags left out.
UniProt P20272, whole entry: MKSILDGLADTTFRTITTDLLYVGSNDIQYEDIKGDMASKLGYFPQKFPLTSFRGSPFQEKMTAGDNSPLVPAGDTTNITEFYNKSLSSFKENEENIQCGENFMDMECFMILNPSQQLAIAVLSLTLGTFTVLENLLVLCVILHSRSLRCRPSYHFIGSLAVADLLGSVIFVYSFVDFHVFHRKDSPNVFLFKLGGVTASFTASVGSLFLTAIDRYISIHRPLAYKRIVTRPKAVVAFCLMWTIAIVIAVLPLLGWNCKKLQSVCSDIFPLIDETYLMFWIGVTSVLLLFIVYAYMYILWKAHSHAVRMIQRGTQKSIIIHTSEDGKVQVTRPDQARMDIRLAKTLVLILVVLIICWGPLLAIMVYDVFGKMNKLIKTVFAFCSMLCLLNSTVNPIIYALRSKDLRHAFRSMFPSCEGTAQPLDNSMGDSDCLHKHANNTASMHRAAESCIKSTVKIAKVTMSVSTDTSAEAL

As usually defined, the EC50 is the concentration giving half of the maximal effect.

The test deals with T1, rat CB1 (Rattus norvegicus, UniProt P20272).
T1 construct: expressed in transfected cells; host or cells: HEK293s, transient transfection; membranes prepared
The test is described as follows: [35S]-GTPγS binding, membranes of HEK293s cells transfected with rat CB1. As to conditions: antagonist mode, vs EC80 concentration of CP55940; mean ± SEM; read-out: CB1 EC50, Rat (ligand behaved as an antagonist). The test is classed as biochemical. As for the experimental part: Antagonist assays were performed similarly, with the addition of an EC80 concentration of CP55940 as a nonselective CB1/CB2 agonist in conjunction with the ligand to be tested. Nonspecific binding was determined in the presence of 20 μmol/L unlabeled GTPγS. The reaction was terminated by addition of ice-cold wash buffer (50 mmol/L Tris-HCl, 5 mmol/L MgCl2, 50 mmol/L NaCl; pH 7.4) followed by rapid filtration under vacuum through 96-well B-glass fiber filter plates (PerkinElmer, Waltham, Massachusetts, USA) using a Biomek FX (Beckman Coulter, Bromma, Sweden). The filter plates were dried (30 min at 50°C) before scintillation liquid (PerkinElmer) was added onto the filters and the bound radioactivity was determined using a scintillation counter (Wallac). Data were fitted with a four-parameter logistic fit using the equation y = A + (B − A)/1 + ((C/x)^D), where A is no activation, B is full activation, C is the EC50, and D is the Hill slope. All data were based on at least three independent experiments.

As for `Cc1c(C(=O)NN2CCCCC2)nn(-c2ccc(Cl)cc2Cl)c1-c1ccc(I)cc1` [AM251, 1-(2,4-dichlorophenyl)-5-(4-iodophenyl)-4-methyl-N-(piperidin-1-yl)-1H-pyrazole-3-carboxamide], the EC50 was determined as 26 ± 8 nM.
